From PubChem BioAssay AID493014 (National Center for Advancing Translational Sciences (NCATS), 2011) come the findings set out here.

The nature of this test: qHTS Assay to Find Inhibitors of Chronic Active B-Cell Receptor Signaling. Conditions: ABC-DLBCL IkBa-CBG/CBR reporter, luminescence ratio (green luciferase fused to IkBa over red control in TMD8 lymphoma cells), 4 h. The method, boiled down: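 Cell line TMD8 (human ABC DLBCL), stably expressing tet-inducible CBG68-IkBa fusion and CBR; IMDM/0.5% FBS; cpd up to 46 uM; dox induction, 4 h, 37C/5% CO2; dual luminescence; green/red ratio; MG132 control.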

[1] abbreviates: measured here: CBR red luminescence, cell number.
Where [2] appears, read: measured here: IkBa-CBG green luminescence.

This is one part of the list. These are further read-outs of the screen, such as a control signal, another cell line or another target. No call is given for them. The list favours compounds with an active or inconclusive main result. Words in brackets tell the shape of the fitted curve; partial curves, single points and poor fits give uncertain potencies.

What is called AC50 is the midpoint of the concentration-response curve, whichever way the signal moves.

Regarding `CCCC1=C(C(=O)OCC)C(c2ccc(F)cc2)n2ncnc2N1` (stereo unspecified), under setting [1], the concentration at half-maximal activity (AC50) was 11.2 µM [falling, single point].

In the case of `O=C(Nc1nc2ccccc2[nH]1)C1CCCC1`, the concentration at half-maximal activity (AC50) under setting [1] was 3.98 µM [falling, full curve, poor fit].

As to `NNC(=O)CCc1nc2ccc(O)cc2[nH]1`, the AC50 under setting [1] was 10 µM [rising, partial curve, poor fit].

Turning to `CC1(C(=O)OCC(=O)Nc2ccc3ccccc3c2)CC1(Cl)Cl` (stereo unspecified), the AC50 under setting [1] is 2.24 µM [rising, partial curve, poor fit].

For `O=C(c1cccc(N2C(=O)C3CC=CCC3C2=O)c1)N1CCN(c2ccccc2)CC1` (stereo unspecified), under setting [1], the AC50 was 11.2 µM [falling, partial curve, poor fit].

`C=C1CCC[C@]2(C)C[C@H]3OC(=O)C(CNC(CC)CO)[C@H]3CC12` (stereo partly specified): the AC50 under setting [1] is 11.2 µM [falling, partial curve, poor fit].

In the case of `CCOc1ccc(/C=C2\SC(=S)N(CCCC(=O)NCCCN3CCOCC3)C2=O)cc1`, under setting [1], the AC50 is 3.16 µM [falling, full curve, poor fit].

`Cc1ccc(NC(=O)N2CCCC2C(=O)Nc2ccc(-n3cnnn3)c(C)c2)cc1` (stereo unspecified): the concentration at half-maximal activity (AC50) under setting [1] is 25.9 µM [rising, single point].

Consider `CC(C(=O)Nc1cccc(Br)c1)c1ccc([N+](=O)[O-])cc1` (stereo unspecified), for which the half-maximal activity concentration (AC50) under setting [2] was 23.1 µM [rising, partial curve, poor fit].

With `COc1ccc(-c2nn(C)c(=O)c3ccccc23)cc1CNC(=O)C1CCCCC1`, the half-maximal activity concentration (AC50) under setting [1] is 7.08 µM [falling, partial curve, poor fit].

Regarding `O=C(O)COc1c(Cl)cc(/C=C2\NC(=O)NC2=O)cc1Br`, the AC50 under setting [1] is 35.5 µM [rising, single point].

As to `N/C(=N\OC(=O)CC1CCCCC1)c1ccc(Cl)cc1`, the concentration at half-maximal activity (AC50) under setting [1] was 11.2 µM [rising, partial curve].

With `CCNC(=O)c1ccccc1-c1nc(-c2ccccc2)no1`, the concentration at half-maximal activity (AC50) under setting [1] is 35.5 µM [rising, partial curve, poor fit].

With `COc1ccc(-n2c(C)cc(C(=O)COC(=O)c3ccc(O)cc3O)c2C)cc1`, the concentration at half-maximal activity (AC50) under setting [1] is 25.9 µM [falling, partial curve].

Turning to `Cc1cccc(NS(=O)(=O)c2ccc(C)c(C(=O)OCC(=O)Nc3cc(C)on3)c2)c1`, the AC50 under setting [1] is 12.6 µM [falling, partial curve].

Turning to `CCOc1cc(C(c2c(C)[nH][nH]c2=O)c2c(C)[nH][nH]c2=O)ccc1OS(=O)(=O)c1ccccc1`, under setting [1], the half-maximal activity concentration (AC50) was 29.1 µM [falling, single point].

Consider `NC(=O)CC(NC(=O)Cc1cccc2ccccc12)c1ccc(NCCc2ccccc2F)c([N+](=O)[O-])c1` (stereo unspecified), for which the AC50 under setting [1] is 5.62 µM [rising, single point].

In the case of `C=CCOc1c(CNc2nccs2)cccc1OCC`, the AC50 under setting [1] is 32.6 µM [rising, partial curve, poor fit].

Turning to `Cc1cc(-n2c(C)cc(C(=O)CSc3nnnn3-c3ccc(Cl)cc3)c2C)no1`, the concentration at half-maximal activity (AC50) under setting [1] is 10.3 µM [rising, partial curve, poor fit].

For `COc1ccc(C(=O)CSC#N)cc1OC`, the AC50 under setting [2] was 22.4 µM [falling, single point].

As to `O=[N+]([O-])c1cccc(N=Cc2sc3ccccc3c2O)c1`, the AC50 under setting [1] is 3.16 µM [falling, full curve].

As for `Cc1nn(CC(O)CN2c3ccccc3Sc3ccccc32)c(C)c1Br` (stereo unspecified), under setting [1], the AC50 is 29.1 µM [falling, single point].

For `Cc1ccc(N(CC(=O)Nc2ccc(F)c(Cl)c2)S(=O)(=O)c2c(C)noc2C)cc1`, under setting [1], the AC50 was 8.91 µM [falling, partial curve].

Turning to `Cn1c(SCc2cccc([N+](=O)[O-])c2)nc2c(c1=O)SCC2`, under setting [1], the AC50 is 12.6 µM [falling, partial curve].

In the case of `CCCNC(=O)c1nnsc1S(=O)(=O)c1ccc(Cl)cc1`, the AC50 under setting [1] was 2.82 µM [falling, full curve].

With `COc1ccc(CCNC(=O)COC(=O)CNS(=O)(=O)c2ccc(SC)c([N+](=O)[O-])c2)cc1`, under setting [1], the AC50 is 29.1 µM [falling, single point].

Regarding `Cc1ccccc1-n1c(-c2csc3ccccc23)n[nH]c1=S`, the AC50 under setting [1] was 20.6 µM [falling, partial curve].

On to `COc1cc2nc(=S)n3[nH]c(COc4ccccc4C)nc3c2cc1OC`, for which the half-maximal activity concentration (AC50) by setting is: under setting [1], 23.1 µM [rising, partial curve]; under setting [2], 20.6 µM [falling, partial curve, poor fit].

For `O=C(Nc1nnc(CCN2CCCCC2)s1)C1CCCCC1`, under setting [1], the concentration at half-maximal activity (AC50) is 4.61 µM [falling, single point].

`Cc1cc[n+](-c2[nH]c(=O)sc2/C=N/N=C(\[O-])c2ccccc2)cc1C`: the concentration at half-maximal activity (AC50) under setting [1] was 22.4 µM [falling, single point].

For the compound `Cn1nc(C(F)(F)F)cc1C(=O)Nc1ccc(Cl)cc1`, the concentration at half-maximal activity (AC50) under setting [1] was 1.41 µM [rising, partial curve, poor fit].

On to `Cc1ccccc1NC(=O)c1ccc2c(c1)CCN2S(C)(=O)=O`, for which the concentration at half-maximal activity (AC50) under setting [1] is 35.5 µM [falling, partial curve, poor fit].

For the compound `COC(=O)c1c(C)oc(C)c1S(=O)(=O)NCC1CC1`, the AC50 under setting [1] is 0.501 µM [rising, full curve, poor fit].

In the case of `CCn1nc(C(=O)NNC(=O)c2ccccc2)c2ccccc2c1=O`, the AC50 under setting [1] is 29.1 µM [falling, single point].

As to `O=C(O)C1OC(Oc2cc3oc(-c4ccccc4)cc(=O)c3c(O)c2O)C(O)C(O)C1O` (stereo unspecified), under setting [2], the AC50 is 20.6 µM [rising, partial curve, poor fit].

Regarding `CC(=O)NC(c1ccco1)c1cc(Cl)c2ccccc2c1O` (stereo unspecified), the AC50 under setting [1] is 25.9 µM [falling, partial curve, poor fit].

On to `CCOc1ncccc1C(=O)OCc1c(F)cccc1Cl`, for which the AC50 under setting [1] was 6.31 µM [rising, partial curve].

For the compound `CCOc1ccc2nc(NC(=O)c3cc([N+](=O)[O-])ccc3N3CCOCC3)sc2c1`, the AC50 under setting [1] is 29.1 µM [rising, partial curve, poor fit].

With `COc1ccc(Cl)cc1S(=O)(=O)n1ccnc1C(C)C`, the AC50 under setting [1] was 29.1 µM [rising, single point].

For `C=CCOC(=O)C1=C(C)NC(SC)=C(C#N)C1c1ccc(OCC)cc1` (stereo unspecified), under setting [1], the half-maximal activity concentration (AC50) is 35.5 µM [falling, partial curve, poor fit].
